Results on one compound are retold here after PMC12298815 (Pharmaceutics, 2025).

Read-outs that look alike come from different tables or passages of the source.

A short description of the data set: In vivo pharmacokinetics in rats. The note with it: plasma, rat, AT 2.5 mg/kg; for AUC(0-inf): read-out: AUCinf of AT; for AUC(0-t): read-out: AUClast of AT. The protocol: Pharmacokinetic parameters were calculated using a non-compartmental analysis model with WinNonlin® software version 5.3 (Pharsight Corp., Mountain View, CA, USA). All quantitative data are presented as mean ± standard deviation (SD) or standard error of the mean (SEM), as indicated. Statistical analyses were performed using one-way analysis of variance (ANOVA) to assess differences among groups, followed by Tukey’s post hoc test for multiple comparisons. A p-value less than 0.05 (p < 0.05) was considered statistically significant.

In general, Cmax refers to the maximum level reached in the sampled fluid or tissue. As a reminder, the Tmax is the time at which the peak concentration occurs. In the case of `CC(C)c1c(C(=O)Nc2ccccc2)c(-c2ccccc2)c(-c2ccc(F)cc2)n1CC[C@@H](O)C[C@@H](O)CC(=O)O` [AT, Atorvastatin], for the setting “IV”, the concentration peaked (Cmax) at 250 ± 62.2 ng/mL, the AUC(0-inf) was 205 ± 45.7 ng·h/mL and the AUC(0-t) is 204 ± 45.6 ng·h/mL. For the setting “oral”, the peak concentration (Cmax) stood at 2.78 ± 0.2 ng/mL, the Tmax is 6 h, the AUC(0-inf) came out at 90.7 ± 19.9 ng·h/mL and the AUC(0-t) came to 39.7 ± 2.96 ng·h/mL.
